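Human melanoma cell lines in 1,536-well plates were treated with a pair of drugs for 72 h, then fixed, stained and imaged. The read-out is cell count (nuclei) in % of the DMSO control; lower values mean stronger growth inhibition or killing. Every drug was used at one fixed concentration, the lower of two screened (a fifth of the higher). These are primary screening values without error estimates.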
Only some of the drugs and lines screened are listed, without regard to their results.
A dash means that no value is listed here.

All values are for the listed drug together with T0901317 (1400 nM): O=S(=O)(c1ccccc1)N(CC(F)(F)F)c1ccc(C(O)(C(F)(F)F)C(F)(F)F)cc1

Partner,501mel,C32,A101D,A375,A2058
CCN(CC)CCCCNc1ncc2cc(-c3cc(OC)cc(OC)c3)c(NC(=O)NC(C)(C)C)nc2n1 at 100 nM,85.9,99.5,95.3,80.1,104
CC[C@]1(O)C[C@H]2CN(CCc3c([nH]c4ccccc34)[C@@](C(=O)OC)(c3cc4c(cc3OC)N(C=O)[C@H]3[C@@](O)(C(=O)OC)[C@H](OC(C)=O)[C@]5(CC)C=CCN6CC[C@]43[C@@H]65)C2)C1 at 0.1 nM,78.1,76.1,59.2,-,25.3
CCCCCCCCCCCCCCCCCCOP(=O)([O-])OC1CC[N+](C)(C)CC1 at 400 nM,92.4,82.7,90.0,-,88.9
Oc1cc(-c2nc(-c3ccccc3)[nH]c2-c2ccncc2)ccc1Cl at 200 nM,63.4,90.0,107,80.2,80.5
C[C@]12O[C@H](C[C@]1(O)CO)n1c3ccccc3c3c4c(c5c6ccccc6n2c5c31)CNC4=O at 4 nM,73.8,94.6,87.4,-,98.8
O=C1NC(=O)/C(=C/c2ccc(-c3ccc(F)cc3O)o2)S1 at 1000 nM,78.4,105,96.9,81.6,106
NC1(c2ccc(-c3nc4ccn5c(=O)[nH]nc5c4cc3-c3ccccc3)cc2)CCC1 at 400 nM,121,97.1,79.5,-,75.8
C[C@@H]1CCN(C(=O)CC#N)C[C@@H]1N(C)c1ncnc2[nH]ccc12 at 1000 nM,85.8,92.9,97.6,97.0,110
CCCS(=O)(=O)Nc1ccc(F)c(C(=O)c2c[nH]c3ncc(Cl)cc23)c1F at 80 nM,70.9,81.7,81.5,-,103
CS(=O)(=O)c1ccc(C(=O)Nc2ccc(Cl)c(-c3ccccn3)c2)c(Cl)c1 at 1000 nM,82.3,116,106,-,108
Cc1cc(Nc2cc(N3CCN(C)CC3)nc(Sc3ccc(NC(=O)C4CC4)cc3)n2)n[nH]1 at 6 nM,77.8,90.4,91.7,-,78.4
CC(C)CCN1c2nc(Nc3cc(F)c(O)c(F)c3)ncc2N(C)C(=O)C1C (centres unmarked) at 200 nM,53.5,104,90.1,93.8,101
O=c1[nH]nc(Sc2ncc([N+](=O)[O-])s2)n1-c1ccc2c(c1)OCCO2 at 200 nM,78.3,91.3,91.5,-,99.7
c1cc(-c2cnn3cc(-c4ccc(OCCN5CCCCC5)cc4)cnc23)ccn1 at 400 nM,75.0,104,120,109,106
Clc1ccc(Nc2nnc(Cc3ccncc3)c3ccccc23)cc1 at 2000 nM,92.7,79.8,104,-,104
N#CC[C@H](C1CCCC1)n1cc(-c2ncnc3[nH]ccc23)cn1 at 1000 nM,104,103,124,-,94.9
Cc1ccc(Nc2nccc(N(C)c3ccc4c(C)n(C)nc4c3)n2)cc1S(N)(=O)=O at 400 nM,77.3,96.9,89.4,-,102
NC(=O)c1ccc(N(C(N)=O)c2c(F)cccc2F)nc1-c1ccc(F)cc1F at 400 nM,84.2,98.5,98.7,-,101
COc1ccc(-c2ccc3c(N4CCOCC4)nc(N4C[C@@H](C)O[C@@H](C)C4)nc3n2)cc1CO at 20 nM,86.8,85.9,92.7,64.7,94.9
N#Cc1c(O)c2c(-c3ccc(-c4ccccc4O)cc3)csc2[nH]c1=O at 2000 nM,-,94.6,94.3,99.6,97.6
N.N.[Cl][Pt][Cl] at 1600 nM,100,91.9,99.8,-,96.1
C[C@@H](N)c1ccc(C(=O)Nc2ccnc3[nH]ccc23)cc1 at 400 nM,75.3,75.9,85.7,-,78.4
OCc1c[nH]c2ccccc12 at 800 nM,83.9,92.4,98.1,-,100

The first 2 entries again:

Partner,501mel,C32,A101D,A375,A2058
CCN(CC)CCCCNc1ncc2cc(-c3cc(OC)cc(OC)c3)c(NC(=O)NC(C)(C)C)nc2n1 at 100 nM,85.9,99.5,95.3,80.1,104
CC[C@]1(O)C[C@H]2CN(CCc3c([nH]c4ccccc34)[C@@](C(=O)OC)(c3cc4c(cc3OC)N(C=O)[C@H]3[C@@](O)(C(=O)OC)[C@H](OC(C)=O)[C@]5(CC)C=CCN6CC[C@]43[C@@H]65)C2)C1 at 0.1 nM,78.1,76.1,59.2,-,25.3

From a melanoma drug combination screen (doi:10.1371/journal.pone.0140310); values rounded.